Laboratory results from patent US20250032484A1, “THERAPEUTIC TARGETS AND AGENTS FOR THE TREATMENT OF POSTTRAUMATIC STRESS DISORDER” (priority 2021, published 2025).
Some entries share one result that the patent states for a list of compounds.

System: VA patients with PTSD (PTSD symptoms, PTSD Checklist)
Experiment: TreeScan nested case-control study of medications associated with PTSD symptom improvement (PTSD Checklist) in VA records
Assay type: in vivo, human
Details: all patients in the overall sample
Protocol: Study Sample and Data Sources. A nested case-control study was conducted within a previously established retrospective cohort that included all VA users with a clinical diagnosis of PTSD (International Classification of Diseases [ICD]-9:309.81, ICD-10: F43.1x) from Oct. 1, 1999 through Sep. 30, 2019 (Shiner et al. (2021) J Eval Clin Pract.). The data source contains information on services use, clinical diagnoses, filled prescriptions, and patient-reported outcome measures (PROMs) for PTSD using the PTSD Checklist (PCL) for these patients. This study was approved by the Veterans Institutional Review Board of Northern New England.
The goal of the current study was to evaluate any filled medications associated with PTSD symptom improvement, and as such, the analytic sample for this study included only patients with PROMs that were at least 30 days apart. 30 days was selected to allow for medications to be taken for at least one full course (typically 28 days). Patients with PROMs more than 365 days apart were excluded as these are unlikely to provide an accurate assessment of PTSD symptom change between the two time points. For patients who had two overlapping PROM intervals, those closest to 84 days in length were chosen to emulate typical PTSD medication efficacy trials (Watts et al. (2013) J Clin Psychiatry. 74: e541-550). When a patient had two or more overlapping intervals at exactly 84 days, the historically earliest interval was chosen. If patients had multiple non-overlapping intervals, all were included. Patients who met the selection criteria for PTSD in the original cohort and had at least one PROM pair where they started a new medication (defined below) constituted the overall analytic sample for the current study.
PTSD Improvement Cases and No Improvement Controls. In order to maximize the number of patients with available symptomatic measurement, two different versions of a PROM for PTSD were integrated into a single dataset (Shiner et al. (2021) J Eval Clin Pract.). […]

COC(=O)N[C@H](C(=O)N1CCC[C@H]1c1nc2cc(F)c([C@H]3CC[C@H](c4cc5[nH]c([C@@H]6CCCN6C(=O)[C@@H](NC(=O)OC)[C@@H](C)OC)nc5cc4F)N3c3cc(F)c(N4CCC(c5ccc(F)cc5)CC4)c(F)c3)cc2[nH]1)[C@@H](C)OC [Pibrentasvir, pibrentasvir]
O:E = Observed Cases over Expected Cases (listed as pibrentasvir): > 2.0

COC[C@H]1C[C@@H](c2ncc(-c3ccc4c(c3)COc3cc5c(ccc6[nH]c([C@@H]7CC[C@H](C)N7C(=O)[C@@H](NC(=O)OC)C(C)C)nc65)cc3-4)[nH]2)N(C(=O)[C@H](NC(=O)OC)c2ccccc2)C1 [Velpatasvir, velpatasvir]
O:E = Observed Cases over Expected Cases (listed as velpatasvir): > 2.0

glecaprevir
O:E = Observed Cases over Expected Cases (listed as glecaprevir): > 2.0
